Measured values from US20150038668A1, “Branched Polyesters Based On Citric Acid, Their Preparation And Use” (BASF SE, priority 2010, published 2015).
≈ marks a conversion by molar mass, not a printed value.

Experiment: physchem
Conditions: thermodynamic from solid
Protocol: To increase the solubility of the low-solubility active ingredients, 40 ml of a 15% polymer solution (in DI water) were prepared. […] If the added active ingredient dissolved, further active ingredient was added, to supersaturation, followed by stirring for a further 72 hours. The resulting suspension was filtered through a 0.45 μm membrane filter and the dissolved fraction of active ingredient was determined by means of UV/Vis spectroscopy. The same method was also carried for the active ingredients alone, in order to determine the solubility of the pure active ingredient and to be able to determine the improvement through salt formation. For comparison, the solubility in 0.1 normal HCl as well was ascertained, representing the solubility of the hydrochloride salt of the corresponding base.

Compound: C(=C\c1ccccc1)/CN1CCN(C(c2ccccc2)c2ccccc2)CC1 [Cinnarizine, cinnarizine]
- solubility thermodynamic at 72 h (simulated gastric fluid): 1740 µg/mL (≈ 4.72 mM)
- solubility thermodynamic at 72 h (water): < 10 µg/mL
